From article PMC11953467
No constants are given. Whether binding was seen depends on the method and setting. In cells and extracts the contact can be indirect. Some results given as binding are weak or reduced against the parent protein; the word gives no strength.

Sequences of proteins named here, by UniProt entry; tags and fusion partners are left off.
UniProt P49682: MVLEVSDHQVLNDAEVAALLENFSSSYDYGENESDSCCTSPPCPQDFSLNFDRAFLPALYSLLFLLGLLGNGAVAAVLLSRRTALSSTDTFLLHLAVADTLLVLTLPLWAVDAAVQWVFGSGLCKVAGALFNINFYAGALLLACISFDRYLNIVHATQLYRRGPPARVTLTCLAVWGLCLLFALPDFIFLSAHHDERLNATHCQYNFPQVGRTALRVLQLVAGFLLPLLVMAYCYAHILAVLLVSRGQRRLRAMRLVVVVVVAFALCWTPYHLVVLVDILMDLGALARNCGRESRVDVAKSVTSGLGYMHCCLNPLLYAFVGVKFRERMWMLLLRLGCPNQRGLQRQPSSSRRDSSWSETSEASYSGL
UniProt P49407: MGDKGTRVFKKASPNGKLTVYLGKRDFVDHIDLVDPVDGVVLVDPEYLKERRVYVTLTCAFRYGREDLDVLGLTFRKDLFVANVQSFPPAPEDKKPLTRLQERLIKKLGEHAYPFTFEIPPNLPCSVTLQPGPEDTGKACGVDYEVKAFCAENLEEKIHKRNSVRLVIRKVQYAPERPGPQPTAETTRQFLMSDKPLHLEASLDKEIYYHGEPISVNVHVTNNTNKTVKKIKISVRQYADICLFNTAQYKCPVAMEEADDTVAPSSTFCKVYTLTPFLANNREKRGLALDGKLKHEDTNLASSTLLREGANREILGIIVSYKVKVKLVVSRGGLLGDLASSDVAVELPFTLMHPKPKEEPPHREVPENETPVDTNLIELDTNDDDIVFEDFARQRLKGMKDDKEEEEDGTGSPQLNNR

Biological target: CXCR3-SmBiT (UniProt P49682)
Test: split reporter; direct mode: receptor with C-terminal SmBiT and LgBiT-βarr1 or LgBiT-βarr2 in HEK293T cells; luminescence after stimulation with VUF10661 or VUF11418 (VUF11207 as reference at CXCR7)

Substance: LgBiT-βarr1 (from UniProt P49407 1-418)
- binding: binds
